From patent US20230075753A1
No constants are given. Whether binding was seen depends on the method and setting. Some results given as binding are weak or reduced against the parent protein; the word gives no strength.

The chains behind the UniProt entries cited, without tags or fusion partners. Residues count along the entry.
UniProt Q9Y337, residues 67-293: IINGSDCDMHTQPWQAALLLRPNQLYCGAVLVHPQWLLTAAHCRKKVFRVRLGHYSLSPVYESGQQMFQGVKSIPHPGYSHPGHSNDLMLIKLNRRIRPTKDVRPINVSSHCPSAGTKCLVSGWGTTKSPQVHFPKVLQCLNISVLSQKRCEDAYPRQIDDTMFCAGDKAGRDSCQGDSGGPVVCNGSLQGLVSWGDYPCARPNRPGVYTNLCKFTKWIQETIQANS

How the values were obtained:
[1] = molecular target: Human KLK5 produced in HEK293 cells with N-terminal TEV-cleavable 8xHis-tag, tag removed (human) (UniProt Q9Y337); test: SDS-PAGE of SEC peak fractions (FIG. 2 legend)
[2] = molecular target: Human KLK5 produced in HEK293 cells with N-terminal TEV-cleavable 8xHis-tag, tag removed (human) (UniProt Q9Y337); test: size exclusion chromatography and SDS-PAGE of peak fractions; KLK5 pre-bound to LEKTI D5 or D8
[3] = molecular target: Human KLK5 produced in HEK293 cells with N-terminal TEV-cleavable 8xHis-tag, tag removed (human) (UniProt Q9Y337); test: SDS-PAGE of the SEC peak fractions of Fig. 1 (co-elution of Fab 10236 with KLK5 in the presence of LEKTI D5, lane 3, or LEKTI D8, lane 5)
[4] = molecular target: Human KLK5 produced in HEK293 cells with N-terminal TEV-cleavable 8xHis-tag, tag removed (human) (UniProt Q9Y337); test: size exclusion chromatography (Superdex 200, PBS pH 7.2); Fab added to KLK5 already incubated with LEKTI D5 (1:1:1), ternary complex
[5] = molecular target: Human KLK5 produced in HEK293 cells with N-terminal TEV-cleavable 8xHis-tag, tag removed (human) (UniProt Q9Y337); test: size exclusion chromatography (Superdex 200, PBS pH 7.2); Fab added to KLK5 already incubated with LEKTI D8 (1:1:1), ternary complex

binding [1]: binds
binding [2]: binds
binding [3]: binds
binding [4]: binds
binding [5]: binds
B1: Rabbit Fab antibody 10236 (Fab, V domains shown)
VH: QSVEESGGRLVTPGTPLTLTCTVSGFPLSNYAMSWVRQAPGKGLEWIGDIYPSDIIDYASWAKGRFTISQTSTTVELKITGPTTEDTATYFCARDNNDYGLDIWGPGTLVTVSS
VL: AYDMTQTPASVEVAVGGTVTIKCQASQSISSWLAWYQQKPGQPPKLLIYLASTLASGVSSRFKGSGSGTQFTLTISGVECADAATYYCQQGYTNSNIINTFGGGTEVVVKR
